The target in assay [1] is Myc-tagged PRMT5, full length (human) (UniProt O14744). In words: co-IP; HEK293T cells transiently transfected with Myc-PRMT5 and/or FLAG-MCM7 (full length or truncations); IP with anti-Myc antibody beads overnight at 4°C; blot with anti-FLAG or anti-Myc.
Assay [2] has as its target FLAG-tagged MCM7, full length (UniProt P33993). Briefly: co-IP; HEK293T cells transiently transfected with Myc-PRMT5 and/or FLAG-MCM7; IP with anti-FLAG antibody beads overnight at 4°C.

Sequences of proteins named here, by UniProt entry; tags and fusion partners are left off. A change or cut given only in a name is not applied to a line headed by its entry.
UniProt O14744: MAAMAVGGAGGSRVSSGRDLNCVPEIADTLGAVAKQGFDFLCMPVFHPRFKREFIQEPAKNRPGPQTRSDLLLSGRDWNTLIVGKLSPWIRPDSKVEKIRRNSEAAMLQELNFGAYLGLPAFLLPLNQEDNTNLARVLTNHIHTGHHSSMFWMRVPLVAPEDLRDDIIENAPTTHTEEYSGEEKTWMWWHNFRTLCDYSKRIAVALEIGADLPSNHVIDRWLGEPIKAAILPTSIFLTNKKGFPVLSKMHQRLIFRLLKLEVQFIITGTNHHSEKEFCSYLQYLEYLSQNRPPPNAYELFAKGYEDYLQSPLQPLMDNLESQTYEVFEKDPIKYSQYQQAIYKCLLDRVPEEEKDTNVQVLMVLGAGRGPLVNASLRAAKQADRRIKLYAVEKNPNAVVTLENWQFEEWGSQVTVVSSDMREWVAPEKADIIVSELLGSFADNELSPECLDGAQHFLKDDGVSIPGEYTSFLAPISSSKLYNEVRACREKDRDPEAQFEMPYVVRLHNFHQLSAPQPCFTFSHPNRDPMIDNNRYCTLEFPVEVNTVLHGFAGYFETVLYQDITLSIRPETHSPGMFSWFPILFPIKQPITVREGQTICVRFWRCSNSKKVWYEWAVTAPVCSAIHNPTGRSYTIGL
UniProt P33993: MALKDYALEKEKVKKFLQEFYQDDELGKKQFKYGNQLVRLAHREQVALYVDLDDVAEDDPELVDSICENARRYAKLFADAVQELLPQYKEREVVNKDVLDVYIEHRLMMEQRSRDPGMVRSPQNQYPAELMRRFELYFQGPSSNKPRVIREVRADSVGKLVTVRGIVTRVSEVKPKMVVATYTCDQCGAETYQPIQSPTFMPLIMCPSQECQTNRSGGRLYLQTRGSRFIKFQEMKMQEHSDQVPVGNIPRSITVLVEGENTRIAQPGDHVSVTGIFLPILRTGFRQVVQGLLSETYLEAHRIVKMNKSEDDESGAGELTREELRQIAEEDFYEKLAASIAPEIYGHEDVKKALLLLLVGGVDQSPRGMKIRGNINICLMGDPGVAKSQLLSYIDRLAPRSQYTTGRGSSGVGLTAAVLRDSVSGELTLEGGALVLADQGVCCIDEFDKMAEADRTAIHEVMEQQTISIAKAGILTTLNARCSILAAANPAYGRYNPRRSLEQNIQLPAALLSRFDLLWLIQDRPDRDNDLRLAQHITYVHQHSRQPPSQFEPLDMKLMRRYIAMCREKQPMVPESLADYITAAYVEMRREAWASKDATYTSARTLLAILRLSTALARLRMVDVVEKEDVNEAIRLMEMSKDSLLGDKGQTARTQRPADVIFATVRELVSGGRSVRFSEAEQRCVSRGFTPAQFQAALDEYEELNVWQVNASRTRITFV

Results are given in words; binding and its absence hold for the method and conditions named. Binding seen in cells or lysates may run through a third protein. Some results given as binding are weak or reduced against the parent protein; the word gives no strength.

Consider “FLAG-tagged MCM7 truncation, residues 1-248 (from UniProt P33993 1-248) (domain or fragment)”, for which the binding entry in assay [1] was “binds”.
The same measure, in the same setting: for “FLAG-tagged MCM7 truncation, residues 428-719 (from UniProt P33993 428-719) (domain or fragment)” the value was “no binding”.
Still for that read-out and setting: for “FLAG-tagged MCM7 truncation, residues 249-427 (from UniProt P33993 249-427) (domain or fragment)” the value was “no binding”.
With “Myc-tagged PRMT5, full length (from UniProt O14744 1-637) (enzyme)”, in assay [2], the binding entry is recorded as “binds”.

The values above are taken from publication PMC8034445.
